PubChem BioAssay AID743454 | Peter MacCallum Cancer Centre, 2014
The whole screen tested about 18,000 reagents; shown is an unselected part. 450 of all reagents (2.5%) were called active. 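Single biological run; no consistent viability z cut-off exists, so the class columns, not z-scores, define the calls.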

Screen: 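Genes whose loss kills vorinostat-resistant colon cancer cells under vorinostat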 (primary screen)
System: human HCT116-VR colon cancer cells, selected for vorinostat resistance
Knock-down reagent: siRNA pool against human genes, 40 nM siRNA pool
Timing: vorinostat for 24 h, read-out about 72 h after transfection
Challenge: vorinostat at 2.5 µM final
Measured: 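Cell viability by CellTiter-Fluor and caspase 3/7 activity by luminescence, each scaled to mock wells per plate, duplicates averaged, then robust z-scored over all plates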
Reading the numbers: viability robust z-score: higher = more viable cells than screen typical; caspase robust z-score: higher = more caspase 3/7 activity than screen typical
Active means: 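Hits are knock-downs in viability class RV1/RV2 or caspase class CA1/CA2, excluding ones that killed cells in the no-drug cell-count arm; hits then retested with single siRNAs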

For SEPTIN2 (septin 2), the entry reads viability hit class no change; caspase hit class no change; viability robust z-score 1; caspase robust z-score 0.12; inactive. For C1orf220 (chromosome 1 putative open reading frame 220), the values are viability hit class no change; caspase hit class no change; viability robust z-score -0.32; caspase robust z-score 0.63; inactive. Silencing of AGMO (alkylglycerol monooxygenase) came out at: viability hit class no change; caspase hit class no change; viability robust z-score -0.2; caspase robust z-score -0.42; inactive. After knock-down of CEP170B (centrosomal protein 170B), the record shows viability hit class no change; caspase hit class no change; viability robust z-score -0.64; caspase robust z-score 0.66; inactive. After knock-down of EML1 (EMAP like 1) the results were viability hit class no change; caspase hit class no change; viability robust z-score 0.6; caspase robust z-score -1.12; inactive. After knock-down of BBS5 (Bardet-Biedl syndrome 5), the screen gave viability hit class no change; caspase hit class no change; viability robust z-score -0.5; caspase robust z-score 0.18; inactive.

DOK4 (docking protein 4) scored viability hit class no change; caspase hit class no change; viability robust z-score 0.3; caspase robust z-score -0.24; inactive. Silencing of ZNF639 (zinc finger protein 639) came out at: viability hit class no change; caspase hit class no change; viability robust z-score -0.61; caspase robust z-score 0.52; inactive. SPAG5 (sperm associated antigen 5) scored viability hit class no change; caspase hit class no change; viability robust z-score -0.37; caspase robust z-score -0.03; inactive. GPAM (glycerol-3-phosphate acyltransferase, mitochondrial) scored viability hit class no change; caspase hit class no change; viability robust z-score 1.72; caspase robust z-score 0.07; inactive. Against RPS4Y2 (ribosomal protein S4 Y-linked 2) the deposit lists viability hit class no change; caspase hit class no change; viability robust z-score 1.15; caspase robust z-score 2.21; inactive. Knock-down of IFT70B (intraflagellar transport 70B) gave: viability hit class no change; caspase hit class no change; viability robust z-score 0.1; caspase robust z-score -1.19; inactive.

KDM8 (lysine demethylase 8 (putative)) scored viability hit class no change; caspase hit class no change; viability robust z-score -2.16; caspase robust z-score -1.13; inactive. After knock-down of SAA4 (serum amyloid A4, constitutive), the screen gave viability hit class no change; caspase hit class no change; viability robust z-score -0.09; caspase robust z-score -0.39; inactive. KRT37 (keratin 37) showed viability hit class no change; caspase hit class no change; viability robust z-score 0.32; caspase robust z-score -0.45; inactive. Depletion of STOML3 (stomatin like 3) came out at: viability hit class no change; caspase hit class no change; viability robust z-score 1.32; caspase robust z-score -0.32; inactive. For COL9A1 (collagen type IX alpha 1 chain) the deposit lists viability hit class no change; caspase hit class CA2 (caspase activation); viability robust z-score -2.61; caspase robust z-score 6.86; active. Against SNCB (synuclein beta), the values are viability hit class no change; caspase hit class no change; viability robust z-score -0.67; caspase robust z-score -0.42; inactive.

With knock-down of SLCO1B7, the screen gave viability hit class no change; caspase hit class no change; viability robust z-score 1.36; caspase robust z-score 0.87; inactive. With knock-down of FMOD (fibromodulin), the record shows viability hit class no change; caspase hit class no change; viability robust z-score 0.24; caspase robust z-score 0.53; inactive. CREG2 (cellular repressor of E1A stimulated genes 2) scored viability hit class no change; caspase hit class no change; viability robust z-score -0.14; caspase robust z-score -0.17; inactive.

Active calls, of those listed so far:
COL9A1 (collagen type IX alpha 1 chain) | viability hit class = no change; caspase hit class = CA2 (caspase activation); viability robust z-score = -2.61; caspase robust z-score = 6.86; Outcome = active
